In patent EP4703377A1:
These are yes or no findings as the source states them, for the method shown. Some results given as binding are weak or reduced against the parent protein; the word gives no strength.

The chains behind the UniProt entries cited, without tags or fusion partners. Residues count along the entry.
UniProt P03452, residues 18-519: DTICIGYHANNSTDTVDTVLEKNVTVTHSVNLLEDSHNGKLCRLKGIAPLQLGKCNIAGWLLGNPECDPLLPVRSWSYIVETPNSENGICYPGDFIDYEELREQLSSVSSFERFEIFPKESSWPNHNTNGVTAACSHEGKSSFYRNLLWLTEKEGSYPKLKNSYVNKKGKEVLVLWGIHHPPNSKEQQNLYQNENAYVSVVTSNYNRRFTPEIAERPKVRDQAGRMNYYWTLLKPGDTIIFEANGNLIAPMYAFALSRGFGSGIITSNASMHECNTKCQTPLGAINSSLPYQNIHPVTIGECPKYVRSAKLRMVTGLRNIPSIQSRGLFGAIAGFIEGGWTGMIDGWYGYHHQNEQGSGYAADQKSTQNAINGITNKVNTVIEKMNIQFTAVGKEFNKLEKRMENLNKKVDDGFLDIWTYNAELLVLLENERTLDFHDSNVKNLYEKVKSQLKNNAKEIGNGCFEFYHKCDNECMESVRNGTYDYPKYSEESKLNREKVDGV

Tests used:
[1] = target: Recombinant HA antigen A/Puerto Rico/8/1934 (H1N1) (influenza A virus A/Puerto Rico/8/1934 (H1N1)) (UniProt P03452); assay: ELISA on plate-coated recombinant HA (AUC, Figure 1)
[2] = target: Recombinant HA antigen A/X-31 (H3N2) (influenza A virus A/X-31 (H3N2)) (UniProt P03437); assay: as above

Binder	binding [1]	binding [2]
Clone 7 (antibody, V domains shown) VH: QVQLQESGPGLVKPSETLSLTCSVSGGPLTSSTYFWGWIRQPPGKGLEWLGSINFRGTTDNAPSLKSRVTLSIDTSTHQFSLRLSSVTAKDTAVYYCARHTQRLTVFTVVHGFDLWGQGTVVSVSS VL: QSALTQPASVSGSPGQSITISCTGATGDIGVSDFVSWYQQHPGKAPKLIIFDVTNRPSGVSNRFSGSKSVNTASLTISGLQAEDEADYYCCLYSTRSRDWEFGGGTKLTVL	binds	
Clone 6 (antibody, V domains shown) VH: QVQLEQSGAEVKKPGSSVKVSCKASGPMFSRSAFSWVRQAPGQGLEWMGRIIPTVDLKNYAQKFQGRVTFTADKSTATSYMELRSLKSEDTAVYYCARMGSGSSYYGMDVWGLGTTVTVSS VL: DIVMTQSPLSLPVIPGEPASISCRSSQSLLQSNGNNYLDWYLQKPGQSPQLLIYLGSNRASGVPDRFSGSGSGTDFTLTISRVEAEDVGVYYCLQARQSSVLTFGGGTKLEIK	binds	binds
